Experimental findings from publication PMC5803261 are described below.

The chains behind the UniProt entries cited, without tags or fusion partners.
UniProt P31749: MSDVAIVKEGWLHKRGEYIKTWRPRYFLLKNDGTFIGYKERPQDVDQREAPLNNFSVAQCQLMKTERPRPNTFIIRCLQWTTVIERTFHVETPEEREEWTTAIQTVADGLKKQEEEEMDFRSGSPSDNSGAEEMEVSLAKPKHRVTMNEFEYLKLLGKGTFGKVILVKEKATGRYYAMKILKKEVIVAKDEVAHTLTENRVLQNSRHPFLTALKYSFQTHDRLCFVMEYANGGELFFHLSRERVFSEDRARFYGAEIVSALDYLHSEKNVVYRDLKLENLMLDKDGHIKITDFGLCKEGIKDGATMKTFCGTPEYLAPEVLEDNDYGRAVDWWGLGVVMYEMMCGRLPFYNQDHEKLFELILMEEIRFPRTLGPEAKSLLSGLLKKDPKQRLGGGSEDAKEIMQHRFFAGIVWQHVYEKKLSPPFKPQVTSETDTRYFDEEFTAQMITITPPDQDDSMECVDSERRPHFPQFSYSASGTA

The target of the assay is GST-radixin (expressed in HEK293T) (rat) (UniProt E9PT65). The experiment in a line: pull-down; HEK293T cells co-transfected with GST-radixin and GFP-USP14 or GFP; serum-starved, EGF (50 ng/ml) for 15 minutes; GST pulldown of lysates.

These are yes or no findings as the source states them, for the method shown. In cells and extracts the contact can be indirect. Binding calls can cover weak binding; strength is not graded here.

Turning to “Akt found in the GST-radixin pull-down from HEK293T cells (from UniProt P31749 1-480)”, the binding result is “binds”.
